PubChem BioAssay AID1508588, Peter MacCallum Cancer Centre, 2020
The whole screen tested about 18,000 reagents; below is a random part of them. 790 of all reagents (4.4%) count as active. 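Calls rest on a combination of fold-change classes in drug and vehicle arms, not all shown here.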 Unmarked entries are inactive. The numbers tell different reagents against one gene apart.

Assay: 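Which gene losses make BRAF-mutant melanoma cells more responsive to vemurafenib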 (primary screen)
Cell system: human WM266.4 melanoma cells (BRAF V600 mutant)
Reagents: siRNA pool against human genes, 40 nM
Duration: 96 h from transfection to read-out
Conditions: vemurafenib 300 nM (about IC25), added 48 h after transfection, for 48 h; comparison arm got DMSO vehicle only
Measured: 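Cell gain (DAPI nuclei at end minus before drug, mean of two replicates) and medium lactate by absorbance per cell, both as ratio to non-targeting siRNA, also grouped into fold-change classes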
Reading the numbers: cell gain with vemurafenib: higher = more cell gain than with non-targeting siRNA; lactate per cell with vemurafenib: higher = more lactate made per cell
Active means: 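a knock-down counts as enhancing when its fold-change classes with vehicle and with vemurafenib, taken together, show a stronger drug effect on cell gain or lactate per cell; exact class pairs not stated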
Meaning of the calls: active = enhances vemurafenib effect; inactive = no enhancement seen

no.	gene	reagent	cell gain with vemurafenib	lactate per cell with vemurafenib
1	PRICKLE2	1	0.5	0.88
2	CCDC77	1	0.83	0.53
3	RPS12	1	0.03	1.32
4	CCDC158	1	0.22	0.3
5	MSH2	1	0.52	0.73
6	ABHD11	1	0.93	0.9
7	SPMAP1	1	0.31	0.9
8	SMYD1	1	0.22	2.35
9	SCGB3A1	1	0.87	0.84
10	TFAP2A	1	0.65	0.6
11	TEX55	1	0.66	1.27
12	TRIM42	1	0.96	0.8
13	NSL1	1	0.77	1.12
14	TXNL4A	1	0.27	0.74
15	GM2A	1	0.63	1.26
16	MUC2	1	0.71	0.25
17	NRG4	1	0.42	1.14
18	SERPINA10	1	0.46	1.08
19	PCDHA1	1	0.47	1
20	COL23A1	1	0.35 (active)	0.64
21	IL22	1	0.38	0.86
22	LEMD3	1	1.04	0.61
23	NT5C	1	0.77	1
24	PCDHA13	1	1.31	0.65
25	HMGN1	1	0.07	2.99
26	ELAPOR1	1	0.83	0.42
27	TMEM222	1	0.73	1
28	UQCRC2	1	0.56	1.66
29	EMD	1	0.6	0.52
30	LMX1A	1	0.65	1.09
31	REM1	1	0.63	1.51
32	PUS7	1	0.49	1.26
33	TPT1P8	1	0.61	0.92
34	LILRB5	1	0.9	0.67
35	DNAH12	1	0.82	0.84
36	HRC	1	0.99	1
37	DOCK6	1	0.53	1.14
38	LINC02908	1	0.57	0.78
39	ACOX2	1	0.35	1.04
40	PYM1	1	0.21	1.35
41	UTP23	1	0.64	1.75
42	MED9	1	0.26	1.22
43	SORCS3	1	0.3	0.58
44	DCD	1	0.27	0.9
45	TRDMT1	1	0.72	0.61
46	POLR2I	1	0.21	1
47	ZNF20	1	0.33	0.74
48	RABL2A	1	0.68	0.78
49	HORMAD2	1	0.6	0.52
50	ASRGL1	1	0.82	0.95
51	GDF11	1	0.86	0.9
52	CFAP299	1	0.26	0.58
53	BCLAF1	1	0.43 (active)	0.68
54	TEKT5	1	0.37	1.34
55	CGNL1	1	0.76	0.69
56	TNFRSF10B	1	0.89	1.06
57	B4GALNT3	1	0.67	0.42
58	GSPT1	1	0.71	0.64
59	EIF3J	1	0.1	1.08
60	DGKG	1	0.75	0.92
61	FBL	1	0.14	0.66
62	PLEKHG7	1	0.92	1.09
63	PLEKHG7	2	0.55	1.03
64	PTBP2	1	0.6	0.39
65	WLS	1	0.92	0.84
66	OR9K2	1	0.27	1.02
67	CCL24	1	0.12	1.9
68	MS4A15	1	0.78	0.97
69	PAQR8	1	0.85	0.77
70	KCNJ5-AS1	1	0.38	1.15
71	CAPN6	1	0.77	0.78
72	MCC	1	0.78 (active)	0.48
73	CRIPTO	1	0.33	1.75
74	KRT25	1	0.55	0.88
75	CASP4	1	0.74	0.56
76	PPRC1	1	0.49	0.55
77	LIMK1	1	1	0.94
78	RASL12	1	0.6	0.82
79	PNLIPRP1	1	0.81	0.98
80	SEC31B	1	0.43	0.9
81	DDX54	1	0.12	1.05
82	TRAF5	1	0.48	0.54
83	KRT73	1	0.38	0.78
84	GPR171	1	0.85	0.64

Sorted by “lactate per cell with vemurafenib” (lowest first): 14 of the entries above.
gene	reagent	cell gain with vemurafenib	lactate per cell with vemurafenib
MUC2	1	0.71	0.25
CCDC158	1	0.22	0.3
TFAP2A	1	0.65	0.6
MSH2	1	0.52	0.73
TXNL4A	1	0.27	0.74
TRIM42	1	0.96	0.8
SCGB3A1	1	0.87	0.84
ABHD11	1	0.93	0.9
SPMAP1	1	0.31	0.9
NSL1	1	0.77	1.12
GM2A	1	0.63	1.26
TEX55	1	0.66	1.27
RPS12	1	0.03	1.32
SMYD1	1	0.22	2.35
